Experimental data as given in publication PMC7275032.
Results are given in words; binding and its absence hold for the method and conditions named. Binding seen in cells or lysates may run through a third protein. Some binding calls cover weakened binding; strength is not graded here.

Target: SPA-2 (polarisome protein) (N. crassa) (UniProt V5IQM7)
Assay: co-IP; heterokaryons with mGFP- and HA-tagged versions of one protein in the deletion background of the other (SPA-2 in the absence of JNS-1, JNS-1 in the absence of SPA-2); precipitation with anti-GFP antibodies, HA-tagged version detected

binding: binds
B1: SPA-2 (polarisome protein) (protein, UniProt V5IQM7 1-888)
chain: MNVRNAPLSPISQGAPSDWNHPPNDNNLGQYNTPPDSANPAGAMNGGFSPMPQSPNGAPSPPPSVGRSSTGMYARSVKSQSQQGENQELVLSDHYISLKRYLSATSRDGNPKPPPNKARDKLQRLTEVQFLELSTDVYDELKRREQVARRGPNAPPETAPPDFLLPQDNFHPKRNQARQKLSSLGPPRFRDLATDVFCELERRYPNFANLEMPLNASPIAMRGPPSRSGTPNNGMGGFPPRGQSHRRPSEASSVRSARSGPPMPPMMNGGYGVPPSPGLPPNGDYGRPMPKQFQSNTIVPNKSTMVEEDDEGNLMSPGQGGDMYGNGRRSMGQAFEADRKLIQDYENQVRELQEKVDNMEMEMRKKDEELNNMQSGDGNKKDWDETRQSLETKLAEAQELNDSLQRELDRIREEHEDETRKLREGLEDGRQSGGKGDGDLARENEELRQSLQEQQQITDEVRREAQEFLREMRTLSQQSGAAWERQTELERTIESLEKEVKEWRSRYARTQTQLRSMRDSSEGVPLEQNAGKYVREKGFVEDSGLVKDLHVTKFQIAIDELLQRARNDNPERVIDSMKAVVVSVRRIAKDIDENPQNDSILQEKAKLKARVSSTANNLITASKNFASSAGISPVSLLDAAASHLVAAVIELLRAAKIRTTPAGELEEEDDGTVTPVGSASFFSPRNGQSQTSSVASAHEVLAQPPAFQGLGGGGGSRISVDSSAYSANSPRESYAESKPTAPDPRRVEDLKFYLQDKTSVMVETIQNLVQLIRSDANINQLSGEIAIITDVVSKVVAETDSCLGSSASSTVVDVVRRLSKCSDRLNEAGQHGIDLDAQGSSPTSREWRMWAQTLPPIAFELARDTKELVQQVDRLAAAGMNDGADDFA
